PubChem BioAssay AID1259254 – NCATS | 2017
Screen: 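Genome-wide screen for genes that prevent DNA re-replication in cancer cells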 (primary screen). Cells: human HCT116 colorectal cancer cells. Reagents: single siRNA against human genes. Duration: 3 days. Measured: 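Nuclei stained with Hoechst and imaged; cell-cycle phase assigned by DNA content; G2 share scaled per plate, non-targeting siRNA 0%, GMNN siRNA 100%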. Reading the numbers: G2 robust z-score: higher = more G2 cells, more excess DNA replication. Call rule: 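An siRNA counts as active if its G2 robust z-score lies at least 5 MADs above the screen median; here such calls match roughly 38% of GMNN control or more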.
The deposit covers about 59,000 reagents; shown is a part drawn at random. About 1,550 of them (2.6%) count as active. 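G2 share is only a proxy for re-replication; each gene was hit by three separate siRNAs, and active genes were retested.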 Unmarked entries are inactive. Reagents against one gene are numbered here. Further read-outs or replicates are left out here. Reagent sequences are not shown. The record does not give: the amount of reagent.

G2 robust z-score, by gene symbol and reagent
PAX7 (paired box 7): #1 -0.105; #2 0.897; #3 -0.31
SLC38A8: #1 0.448; #2 -0.323; #3 -0.781
C1orf74 (chromosome 1 open reading frame 74): #1 0.0489; #2 1.38; #3 -0.933
GRHL2 (grainyhead like transcription factor 2): #1 -0.458; #2 -0.661; #3 2.12
ARL8A (ARF like GTPase 8A): #1 -0.685; #2 -0.205; #3 -0.59
RPS8P4 (ribosomal protein S8 pseudogene 4): #1 3.52; #2 0.653; #3 -0.951
SETD3: #1 -0.58; #2 1.82; #3 -0.0295; #4 -0.153; #5 -0.301; #6 -0.649
BRWD1 (bromodomain and WD repeat domain containing 1): #1 0.549; #2 0.828; #3 0.153
OR10AD1 (olfactory receptor family 10 subfamily AD member 1): #1 0.736; #2 1.82; #3 0.252
TRAPPC4 (trafficking protein particle complex subunit 4): #1 0.403; #2 -0.132; #3 1.34
CNIH3 (cornichon family AMPA receptor auxiliary protein 3): #1 0.705; #2 -1.11; #3 -0.0957
SPDYE2 (speedy/RINGO cell cycle regulator family member E2): #1 0.376; #2 -0.523; #3 -0.492; #4 -0.653; #5 -0.61; #6 -0.0413
NIFK (nucleolar protein interacting with the FHA domain of MKI67): #1 1.47; #2 2.82; #3 4.84
DCAF11 (DDB1 and CUL4 associated factor 11): #1 -1.12; #2 -0.54; #3 -0.273
RGS4 (regulator of G protein signaling 4): #1 -0.276; #2 0.215; #3 2.43
TST (thiosulfate sulfurtransferase): #1 3.66; #2 1.6; #3 -0.252
PAX1 (paired box 1): #1 0.5; #2 0.649; #3 -0.641
EEF2 (eukaryotic translation elongation factor 2): #1 -0.618; #2 0.264; #3 -1.51
SEMA3G (semaphorin 3G): #1 -0.591; #2 -1.02; #3 1.06
NOL7 (nucleolar protein 7): #1 5.13 (active); #2 -0.59; #3 1.28
AKIRIN1 (akirin 1): #1 -0.656; #2 0.248; #3 1.33
BARHL1 (BarH like homeobox 1): #1 0.467; #2 -1.06; #3 0.197
JAML (junction adhesion molecule like): #1 -0.553; #2 -0.0281; #3 -0.991
GALNT1 (polypeptide N-acetylgalactosaminyltransferase 1): #1 -0.743; #2 1.53; #3 0.254
LYSMD3 (LysM domain containing 3): #1 -0.0386; #2 -0.0246; #3 -0.445
PRKAG2-AS2 (PRKAG2 antisense RNA 2): #1 -0.872; #2 0.375; #3 0.464; #4 -0.975; #5 -0.812; #6 0.201

Reagents listed so far called active, once more:
G2 robust z-score, by gene symbol and reagent
NOL7 (nucleolar protein 7): #1 5.13 (active)
